No constants are given. Whether binding was seen depends on the method and setting. Binding seen in cells or lysates may run through a third protein. Some binding calls cover weakened binding; strength is not graded here.
Target: GFP-TRIM28 (UniProt Q13263)
Test: co-IP; GFP-vector or GFP-TRIM28 transfected U2OS-TRE cells, with or without IR; pulled down by anti-GFP, immunoblotted with anti-TRDMT1

The chains behind the UniProt entries cited, without tags or fusion partners.
UniProt Q13263: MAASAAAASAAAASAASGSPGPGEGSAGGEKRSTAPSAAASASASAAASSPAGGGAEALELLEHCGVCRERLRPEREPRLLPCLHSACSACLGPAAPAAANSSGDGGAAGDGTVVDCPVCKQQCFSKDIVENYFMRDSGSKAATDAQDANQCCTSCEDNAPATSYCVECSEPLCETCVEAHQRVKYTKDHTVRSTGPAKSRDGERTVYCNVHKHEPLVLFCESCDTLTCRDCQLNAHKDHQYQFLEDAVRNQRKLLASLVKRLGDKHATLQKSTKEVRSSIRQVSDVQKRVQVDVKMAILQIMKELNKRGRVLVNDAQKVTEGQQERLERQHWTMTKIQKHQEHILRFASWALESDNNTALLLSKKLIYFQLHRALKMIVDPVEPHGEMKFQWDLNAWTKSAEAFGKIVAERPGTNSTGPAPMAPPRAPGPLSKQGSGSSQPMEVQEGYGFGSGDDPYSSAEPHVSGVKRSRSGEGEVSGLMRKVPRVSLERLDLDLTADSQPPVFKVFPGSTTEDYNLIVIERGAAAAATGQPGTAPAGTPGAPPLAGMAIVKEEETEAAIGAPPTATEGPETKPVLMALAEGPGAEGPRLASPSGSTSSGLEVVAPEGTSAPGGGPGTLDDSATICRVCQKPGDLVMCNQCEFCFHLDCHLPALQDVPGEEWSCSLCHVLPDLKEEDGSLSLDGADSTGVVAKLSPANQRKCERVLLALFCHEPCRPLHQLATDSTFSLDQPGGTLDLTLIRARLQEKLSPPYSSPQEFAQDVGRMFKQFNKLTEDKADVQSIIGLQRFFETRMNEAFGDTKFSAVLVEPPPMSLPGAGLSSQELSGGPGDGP

B1: TRDMT1 (protein, UniProt O14717 1-391)
chain: MEPLRVLELYSGVGGMHHALRESCIPAQVVAAIDVNTVANEVYKYNFPHTQLLAKTIEGITLEEFDRLSFDMILMSPPCQPFTRIGRQGDMTDSRTNSFLHILDILPRLQKLPKYILLENVKGFEVSSTRDLLIQTIENCGFQYQEFLLSPTSLGIPNSRLRYFLIAKLQSEPLPFQAPGQVLMEFPKIESVHPQKYAMDVENKIQEKNVEPNISFDGSIQCSGKDAILFKLETAEEIHRKNQQDSDLSVKMLKDFLEDDTDVNQYLLPPKSLLRYALLLDIVQPTCRRSVCFTKGYGSYIEGTGSVLQTAEDVQVENIYKSLTNLSQEEQITKLLILKLRYFTPKEIANLLGFPPEFGFPEKITVKQRYRLLGNSLNVHVVAKLIKILYE
binding: binds

Reference: publication PMC7984809
